The values below come from paper PMC5414350.

The target in this experiment is Ms2 (=PG5_(P1593S)) protein (Triticum aestivum (common wheat)). The experiment in a line: two-hybrid; pairwise yeast two-hybrid with AD (pGADT7) and BD (pGBKT7) fusions; DDO, TDO and QDO media.

Results are given in words; binding and its absence hold for the method and conditions named. A result given as binding can be weak or reduced; the word gives no strength.

In the case of “ms2 (=PG5_(P1076F)) protein (from UniProt A0A1D5Y5U2)”, the binding entry is reported as “binds”.
